Measured values taken from the supplement of paper PMC7877785.
± gives the uncertainty stated by the source. The uncertainty is large for many entries.

Experiment: self-splicing fitness, log relative to wild type (ln ratio); higher = more splicing; Tetrahymena group I intron in knt gene, E. coli kanamycin selection, DiMSum; sequences stand for … in CUCUCU…GGAGGGAAAAGUUAUCAGGCAUGCACCUGGUAGCUAGUCUUUAAACCAAUAGAUUGCAUCGGUUUAAAAGGCAAGACCGUCAAAUUGCGGGAAAGGGGUCAACAGCCGUUCAGUACCAAGUCUCAGGGGAAACUUUGAGAUGGCCUUGCAAAGGGUAUGGUAAUAAGCUGACGGACAUGGUCCUAACCACGCAGCCAAGUCCUAAGUCAACAGAUCUUCUGUUGAUAUGGAUGCAGUUCACAGACUAAAUGUCGGUCGGGGAAGAUGUAUUCUUCUCAUAAGAUAUAGUCGGACCUCUCCUUAAUGGGAGCUAGCGGAUGAAGUGAUGCAACACUGGAGCCGCUGGGAACUAAUUUGUAUGCGAAAGUAUAUUGAUUAGUUUUGGAGUACUCGUGGUCG
How it was run: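 Library with all eight P1ex-region intron nucleotides randomised, intron inside the knt kanamycin-resistance gene on pET-22b(+), in E. coli BL21(DE3). Cells grew overnight at 37°C or 30°C on LB agar with or without 25 μg/mL kanamycin (plus 100 μg/mL carbenicillin, 50 μM IPTG, 0.2% rhamnose), in six replicate transformations. Pooled colonies were amplicon-sequenced on Illumina HiSeq 2500. DiMSum fitness is the error-weighted combination of wild-type-normalised replicate fold changes, kanamycin versus none.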

With CUAUAGCAAUAUUACGUACU the “self-splicing fitness (ln)” value (37 °C) was -2.74 ± 0.76.

With UUAAAGCAAUAUUACGAGGC the “self-splicing fitness (ln)” value (30 °C) was -3.94 ± 0.37 and the “self-splicing fitness (ln)” value (37 °C) was -2.36 ± 0.29.

With GCGGAGCAAUAUUACGGAGG the “self-splicing fitness (ln)” value (37 °C) was -1.54 ± 1.2.

In the case of UGAGAGCAAUAUUACGCCAU, the “self-splicing fitness (ln)” value (30 °C) is reported as -2.66 ± 0.51.

For CCGUAGCAAUAUUACGCACC, the “self-splicing fitness (ln)” value (30 °C) was -5.17 ± 1 and the “self-splicing fitness (ln)” value (37 °C) was -2.21 ± 0.37.

For CAUCAGCAAUAUUACGCCAC, the “self-splicing fitness (ln)” value (30 °C) was -2.77 ± 0.46 and the “self-splicing fitness (ln)” value (37 °C) was -2.22 ± 0.43.

In the case of GUCAAGCAAUAUUACGCGGC, the “self-splicing fitness (ln)” value (30 °C) is reported as -4.89 ± 0.71 and the “self-splicing fitness (ln)” value (37 °C) is reported as -4.61 ± 1.

For UGGGAGCAAUAUUACGAUCC, the “self-splicing fitness (ln)” value (37 °C) was -1.98 ± 0.81.

In the case of UCGGAGCAAUAUUACGAGUU, the “self-splicing fitness (ln)” value (37 °C) is reported as -2.45 ± 0.55.

For GGAUAGCAAUAUUACGUAUC, the “self-splicing fitness (ln)” value (30 °C) was -2.62 ± 1.1 and the “self-splicing fitness (ln)” value (37 °C) was -1.91 ± 0.51.

With CGCGAGCAAUAUUACGACGC the “self-splicing fitness (ln)” value (37 °C) was -1.43 ± 0.87.

In the case of GUGGAGCAAUAUUACGCUAC, the “self-splicing fitness (ln)” value (30 °C) is reported as -2.94 ± 0.62 and the “self-splicing fitness (ln)” value (37 °C) is reported as -3.05 ± 0.74.

With CCAGAGCAAUAUUACGACAA the “self-splicing fitness (ln)” value (30 °C) was -2.56 ± 0.62.

For GGUGAGCAAUAUUACGAGAU, the “self-splicing fitness (ln)” value (30 °C) was -4.65 ± 0.51.

For UUAGAGCAAUAUUACGGGCU, the “self-splicing fitness (ln)” value (37 °C) was -2.35 ± 0.63.

For UGUGAGCAAUAUUACGUGGC, the “self-splicing fitness (ln)” value (30 °C) was -3 ± 0.63.

For UGGGAGCAAUAUUACGACAU, the “self-splicing fitness (ln)” value (30 °C) was -3.84 ± 0.039 and the “self-splicing fitness (ln)” value (37 °C) was -2.9 ± 0.05.

With AGGGAGCAAUAUUACGACCC the “self-splicing fitness (ln)” value (37 °C) was -1.52 ± 0.59.

For GUGGAGCAAUAUUACGGUUC, the “self-splicing fitness (ln)” value (30 °C) was -4.95 ± 1 and the “self-splicing fitness (ln)” value (37 °C) was -1.9 ± 0.58.

In the case of UUCAAGCAAUAUUACGCACA, the “self-splicing fitness (ln)” value (30 °C) is reported as -0.531 ± 0.089 and the “self-splicing fitness (ln)” value (37 °C) is reported as 0.153 ± 0.13.

With GAGGAGCAAUAUUACGCACU the “self-splicing fitness (ln)” value (30 °C) was -2.12 ± 0.59.

In the case of UCCGAGCAAUAUUACGAAUA, the “self-splicing fitness (ln)” value (37 °C) is reported as -3.54 ± 0.59.

In the case of UUGGAGCAAUAUUACGGCUG, the “self-splicing fitness (ln)” value (37 °C) is reported as -1.35 ± 0.57.

With CGGGAGCAAUAUUACGGAAA the “self-splicing fitness (ln)” value (37 °C) was -3.04 ± 0.52.

For UAUAAGCAAUAUUACGAGGA, the “self-splicing fitness (ln)” value (37 °C) was -3.12 ± 0.53.

In the case of UCUGAGCAAUAUUACGAUGC, the “self-splicing fitness (ln)” value (30 °C) is reported as -3.21 ± 0.76.

In the case of GGGCAGCAAUAUUACGCGGC, the “self-splicing fitness (ln)” value (30 °C) is reported as -2.78 ± 0.54.

In the case of UUCUAGCAAUAUUACGAAGU, the “self-splicing fitness (ln)” value (30 °C) is reported as -2.71 ± 0.65.

For CUGAAGCAAUAUUACGGGUC, the “self-splicing fitness (ln)” value (37 °C) was -3.54 ± 0.73.

In the case of UUUGAGCAAUAUUACGGCCG, the “self-splicing fitness (ln)” value (37 °C) is reported as -2.64 ± 1.1.

For ACGGAGCAAUAUUACGGGUG, the “self-splicing fitness (ln)” value (30 °C) was -3.61 ± 0.18 and the “self-splicing fitness (ln)” value (37 °C) was -3.18 ± 0.22.

For CGCGAGCAAUAUUACGCCGC, the “self-splicing fitness (ln)” value (30 °C) was -2.21 ± 1.1.

With ACGGAGCAAUAUUACGAGAC the “self-splicing fitness (ln)” value (37 °C) was -2.82 ± 0.75.

In the case of AGUGAGCAAUAUUACGCAUA, the “self-splicing fitness (ln)” value (30 °C) is reported as -4.2 ± 0.43 and the “self-splicing fitness (ln)” value (37 °C) is reported as -2.56 ± 0.29.

With GCAGAGCAAUAUUACGUUGC the “self-splicing fitness (ln)” value (30 °C) was -2.79 ± 0.53.

In the case of AGUGAGCAAUAUUACGUGCU, the “self-splicing fitness (ln)” value (37 °C) is reported as -1.23 ± 0.7.

In the case of UCUGAGCAAUAUUACGAGAC, the “self-splicing fitness (ln)” value (37 °C) is reported as -3.98 ± 0.51.

In the case of CGGGAGCAAUAUUACGAUUC, the “self-splicing fitness (ln)” value (30 °C) is reported as -1.27 ± 1.4 and the “self-splicing fitness (ln)” value (37 °C) is reported as -1.39 ± 0.88.

For CUCUAGCAAUAUUACGCAUA, the “self-splicing fitness (ln)” value (30 °C) was -2.83 ± 0.51 and the “self-splicing fitness (ln)” value (37 °C) was -3.87 ± 0.72.

For CGGAAGCAAUAUUACGAAGC, the “self-splicing fitness (ln)” value (30 °C) was -2.62 ± 0.76 and the “self-splicing fitness (ln)” value (37 °C) was -1.98 ± 0.65.

For UAUGAGCAAUAUUACGCCUC, the “self-splicing fitness (ln)” value (30 °C) was -3.38 ± 0.75.

In the case of GCGGAGCAAUAUUACGGCAA, the “self-splicing fitness (ln)” value (30 °C) is reported as -3.97 ± 0.59.

In the case of CUUCAGCAAUAUUACGGACC, the “self-splicing fitness (ln)” value (30 °C) is reported as -3.73 ± 0.6 and the “self-splicing fitness (ln)” value (37 °C) is reported as -2.77 ± 1.1.

With GAAGAGCAAUAUUACGCGCU the “self-splicing fitness (ln)” value (37 °C) was -2.65 ± 0.76.

With GGGCAGCAAUAUUACGCUCU the “self-splicing fitness (ln)” value (37 °C) was -2.08 ± 0.64.

With AUGGAGCAAUAUUACGAAAU the “self-splicing fitness (ln)” value (37 °C) was -2.87 ± 0.61.

With UGUCAGCAAUAUUACGUCUA the “self-splicing fitness (ln)” value (30 °C) was 0.314 ± 0.096 and the “self-splicing fitness (ln)” value (37 °C) was -0.489 ± 0.1.

For GUCGAGCAAUAUUACGAGAA, the “self-splicing fitness (ln)” value (30 °C) was -1.97 ± 1.2 and the “self-splicing fitness (ln)” value (37 °C) was -1.87 ± 0.52.

With GCUGAGCAAUAUUACGCUAA the “self-splicing fitness (ln)” value (37 °C) was -1.69 ± 0.52.

For AUAGAGCAAUAUUACGUAAA, the “self-splicing fitness (ln)” value (30 °C) was -4.12 ± 0.6.

In the case of UGCGAGCAAUAUUACGUGCU, the “self-splicing fitness (ln)” value (30 °C) is reported as -2.67 ± 0.62.

In the case of AGGAAGCAAUAUUACGUCCG, the “self-splicing fitness (ln)” value (30 °C) is reported as -0.623 ± 0.16 and the “self-splicing fitness (ln)” value (37 °C) is reported as 0.408 ± 0.2.

With UGAGAGCAAUAUUACGCAAC the “self-splicing fitness (ln)” value (30 °C) was -1.74 ± 0.84.

With CGCUAGCAAUAUUACGUCCC the “self-splicing fitness (ln)” value (30 °C) was -2.63 ± 0.16 and the “self-splicing fitness (ln)” value (37 °C) was -1.54 ± 0.19.

In the case of UAAAAGCAAUAUUACGCUAC, the “self-splicing fitness (ln)” value (37 °C) is reported as -2.97 ± 0.52.

For AAGAAGCAAUAUUACGAUGG, the “self-splicing fitness (ln)” value (30 °C) was -1.93 ± 0.14 and the “self-splicing fitness (ln)” value (37 °C) was -2 ± 0.22.

With CUGCAGCAAUAUUACGUAGC the “self-splicing fitness (ln)” value (30 °C) was -2.66 ± 0.15 and the “self-splicing fitness (ln)” value (37 °C) was -1.95 ± 0.18.

With UGCUAGCAAUAUUACGCGGC the “self-splicing fitness (ln)” value (37 °C) was -2.26 ± 0.56.

In the case of UUCCAGCAAUAUUACGCGCU, the “self-splicing fitness (ln)” value (37 °C) is reported as -2.34 ± 0.64.

With UUGGAGCAAUAUUACGUGUA the “self-splicing fitness (ln)” value (37 °C) was -3.65 ± 0.52.

For AGGGAGCAAUAUUACGAACU, the “self-splicing fitness (ln)” value (30 °C) was -3.41 ± 0.75 and the “self-splicing fitness (ln)” value (37 °C) was -2.05 ± 0.78.
